These are yes or no findings as the source states them, for the method shown. Some entries that bind do so weakly or less than the wild type. No end group written: not given here.
Key:
[1] = target: T1, BRAF V600E peptide (biotinylated synthetic peptide including the amino acids of and surrounding the BRAF V600E mutation) (human); test: BLI (Octet Red96), biotinylated peptide on SAX sensors, antibody 2.78 to 33.3 nM
T1 sequence (peptide, biotinylated (position not stated)): GLATEKSRWSG

The chains behind the UniProt entries cited, without tags or fusion partners. Where a name states a change or a piece, a line headed by the entry shows the natural chain unless it says otherwise. A line that says so, or that is headed by a name, gives the form on record, which may keep a tag or linker.
human BRAF V600E protein (P15056, form named): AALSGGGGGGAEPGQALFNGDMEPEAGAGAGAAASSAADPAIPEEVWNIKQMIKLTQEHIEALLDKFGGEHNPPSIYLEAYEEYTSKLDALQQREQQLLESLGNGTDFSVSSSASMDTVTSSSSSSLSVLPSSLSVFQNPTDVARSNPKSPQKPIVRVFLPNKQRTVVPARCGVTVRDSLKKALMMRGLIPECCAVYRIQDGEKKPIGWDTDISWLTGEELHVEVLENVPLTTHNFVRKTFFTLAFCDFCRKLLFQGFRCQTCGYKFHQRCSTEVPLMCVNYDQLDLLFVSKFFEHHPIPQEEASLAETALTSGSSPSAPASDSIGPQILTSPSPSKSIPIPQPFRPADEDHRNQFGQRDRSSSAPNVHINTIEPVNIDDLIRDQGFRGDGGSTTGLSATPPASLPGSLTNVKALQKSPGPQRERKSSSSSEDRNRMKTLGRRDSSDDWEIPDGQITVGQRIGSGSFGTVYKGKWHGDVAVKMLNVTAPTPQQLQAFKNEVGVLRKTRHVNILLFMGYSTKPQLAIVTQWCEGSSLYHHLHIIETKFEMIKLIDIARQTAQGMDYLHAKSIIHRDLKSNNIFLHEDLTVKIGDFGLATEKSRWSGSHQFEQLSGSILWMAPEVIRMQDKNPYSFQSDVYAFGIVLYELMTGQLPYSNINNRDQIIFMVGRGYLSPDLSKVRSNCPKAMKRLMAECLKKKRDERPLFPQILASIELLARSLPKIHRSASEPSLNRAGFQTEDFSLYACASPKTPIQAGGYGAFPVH

[2] = target: human BRAF V600E protein (human) (UniProt P15056); test: IHC, FLEX protocol, non-purified antibody

B1: chimeric BRAF V600E antibody (mouse variable domains, rabbit IgG heavy chain and rabbit kappa1 light chain constant domains; heavy chain SEQ ID NO:2 and light … (antibody, V domains shown)
VH: QAYLQQSGAELVRPGASVKMSCKASGYTFTSYNMHWIKQTPRQGLEWIGAIYPGNGDTSYNQKFKGKATLTVDRSSNTAYMQLSSLTSEDSAVYFCARDGISPWGQGTLVTVSS
VL: DIKMTQSPSSMYASLGERVTITCKASQDINRYLSWFQQKPGKSPKTLIYRANRVLDGVPSRFSGSGSGQDYSLTISSLESEDMGIYYCLHYDEYPYTYGGGTKLEIKG
binding [1]: binds

B2: recombinant mouse anti-human BRAF V600E antibody (mouse IgG2a heavy chain, mouse kappa1 light chain) (antibody, V domains shown)
VH: B1 VH
VL: DIKMTQSPSSMYASLGERVTITCKASQDINRYLSWFQQKPGKSPKTLIYRANRVLDGVPSRFSGSGSGQDYSLTISSLESEDMGIYYCLHYDEYPYTYGGGTKLEIK
binding [2]: binds
binding [1]: binds
